These are yes or no findings as the source states them, for the method shown. In cells and extracts the contact can be indirect. Some entries that bind do so weakly or less than the wild type.
molecular target: PRMT1 (human) (UniProt Q99873); assay: co-IP

By UniProt entry, the sequences of proteins in these tests, tags left out.
UniProt Q99873: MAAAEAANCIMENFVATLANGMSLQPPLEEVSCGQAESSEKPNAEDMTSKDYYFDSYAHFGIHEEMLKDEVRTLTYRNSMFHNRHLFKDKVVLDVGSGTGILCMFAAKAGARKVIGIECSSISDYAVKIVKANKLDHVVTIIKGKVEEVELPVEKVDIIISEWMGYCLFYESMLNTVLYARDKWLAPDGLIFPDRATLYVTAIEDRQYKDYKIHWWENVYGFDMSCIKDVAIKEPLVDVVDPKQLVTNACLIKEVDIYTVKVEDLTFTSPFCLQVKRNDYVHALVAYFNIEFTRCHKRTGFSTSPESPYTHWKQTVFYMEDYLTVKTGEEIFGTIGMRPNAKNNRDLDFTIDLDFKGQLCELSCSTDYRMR
UniProt P25787: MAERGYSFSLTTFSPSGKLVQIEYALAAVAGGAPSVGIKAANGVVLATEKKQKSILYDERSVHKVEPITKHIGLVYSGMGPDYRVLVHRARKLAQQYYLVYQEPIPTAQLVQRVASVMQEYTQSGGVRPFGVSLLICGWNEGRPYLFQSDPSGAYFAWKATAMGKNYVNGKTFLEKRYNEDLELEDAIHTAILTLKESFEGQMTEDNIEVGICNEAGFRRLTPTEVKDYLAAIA
UniProt Q16186: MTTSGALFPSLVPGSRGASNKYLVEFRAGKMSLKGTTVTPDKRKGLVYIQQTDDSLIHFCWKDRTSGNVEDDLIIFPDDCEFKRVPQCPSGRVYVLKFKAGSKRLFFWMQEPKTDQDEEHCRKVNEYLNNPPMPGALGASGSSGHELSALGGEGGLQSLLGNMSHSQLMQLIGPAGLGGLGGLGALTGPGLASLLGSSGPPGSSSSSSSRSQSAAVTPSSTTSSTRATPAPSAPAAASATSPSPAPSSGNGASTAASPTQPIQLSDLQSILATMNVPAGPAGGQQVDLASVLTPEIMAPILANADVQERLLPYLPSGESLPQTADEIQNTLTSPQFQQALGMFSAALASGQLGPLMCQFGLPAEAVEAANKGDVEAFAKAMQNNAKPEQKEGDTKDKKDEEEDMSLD
UniProt O43347: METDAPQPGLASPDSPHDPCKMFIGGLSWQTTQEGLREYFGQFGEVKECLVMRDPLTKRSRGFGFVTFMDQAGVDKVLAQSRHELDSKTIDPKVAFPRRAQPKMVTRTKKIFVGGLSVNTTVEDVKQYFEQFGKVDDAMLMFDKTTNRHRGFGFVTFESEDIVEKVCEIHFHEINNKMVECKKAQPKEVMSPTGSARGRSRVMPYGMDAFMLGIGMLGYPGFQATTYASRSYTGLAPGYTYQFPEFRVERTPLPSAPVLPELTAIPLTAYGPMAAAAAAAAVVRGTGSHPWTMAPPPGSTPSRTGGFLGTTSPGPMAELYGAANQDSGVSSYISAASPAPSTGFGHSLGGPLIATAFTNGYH
UniProt Q13200: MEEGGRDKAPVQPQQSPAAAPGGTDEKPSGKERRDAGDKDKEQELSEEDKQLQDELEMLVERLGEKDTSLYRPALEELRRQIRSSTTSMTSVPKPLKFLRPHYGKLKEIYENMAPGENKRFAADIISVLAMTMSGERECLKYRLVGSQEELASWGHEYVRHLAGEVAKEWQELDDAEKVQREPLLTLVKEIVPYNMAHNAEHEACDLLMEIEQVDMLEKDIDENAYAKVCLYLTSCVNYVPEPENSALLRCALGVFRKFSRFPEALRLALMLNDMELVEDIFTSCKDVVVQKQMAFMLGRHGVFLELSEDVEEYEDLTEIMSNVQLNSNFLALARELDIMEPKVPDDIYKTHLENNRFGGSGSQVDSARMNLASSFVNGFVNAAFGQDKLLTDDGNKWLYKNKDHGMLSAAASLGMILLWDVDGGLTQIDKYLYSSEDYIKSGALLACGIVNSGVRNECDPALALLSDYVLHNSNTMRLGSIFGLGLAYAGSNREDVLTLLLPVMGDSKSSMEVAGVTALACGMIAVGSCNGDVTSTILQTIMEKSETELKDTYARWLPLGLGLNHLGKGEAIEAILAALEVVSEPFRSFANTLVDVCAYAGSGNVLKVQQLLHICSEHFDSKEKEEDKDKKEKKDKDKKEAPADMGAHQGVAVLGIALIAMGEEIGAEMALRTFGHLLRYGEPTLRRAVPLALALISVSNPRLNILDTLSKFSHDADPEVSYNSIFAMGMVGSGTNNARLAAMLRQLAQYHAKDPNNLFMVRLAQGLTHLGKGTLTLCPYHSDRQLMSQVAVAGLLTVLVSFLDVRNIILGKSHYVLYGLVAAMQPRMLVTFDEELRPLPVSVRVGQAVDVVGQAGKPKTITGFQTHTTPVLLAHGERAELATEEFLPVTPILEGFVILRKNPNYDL
UniProt P55036: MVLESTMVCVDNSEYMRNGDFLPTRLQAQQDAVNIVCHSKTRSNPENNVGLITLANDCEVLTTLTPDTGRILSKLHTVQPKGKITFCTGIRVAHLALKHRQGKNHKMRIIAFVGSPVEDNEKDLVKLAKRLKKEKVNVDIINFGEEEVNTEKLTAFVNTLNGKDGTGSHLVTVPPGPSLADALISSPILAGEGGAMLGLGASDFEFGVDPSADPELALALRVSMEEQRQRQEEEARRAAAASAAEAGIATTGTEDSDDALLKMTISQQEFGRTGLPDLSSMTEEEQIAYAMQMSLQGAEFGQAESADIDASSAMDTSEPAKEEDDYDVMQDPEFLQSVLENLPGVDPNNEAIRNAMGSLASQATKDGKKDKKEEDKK
UniProt Q13547: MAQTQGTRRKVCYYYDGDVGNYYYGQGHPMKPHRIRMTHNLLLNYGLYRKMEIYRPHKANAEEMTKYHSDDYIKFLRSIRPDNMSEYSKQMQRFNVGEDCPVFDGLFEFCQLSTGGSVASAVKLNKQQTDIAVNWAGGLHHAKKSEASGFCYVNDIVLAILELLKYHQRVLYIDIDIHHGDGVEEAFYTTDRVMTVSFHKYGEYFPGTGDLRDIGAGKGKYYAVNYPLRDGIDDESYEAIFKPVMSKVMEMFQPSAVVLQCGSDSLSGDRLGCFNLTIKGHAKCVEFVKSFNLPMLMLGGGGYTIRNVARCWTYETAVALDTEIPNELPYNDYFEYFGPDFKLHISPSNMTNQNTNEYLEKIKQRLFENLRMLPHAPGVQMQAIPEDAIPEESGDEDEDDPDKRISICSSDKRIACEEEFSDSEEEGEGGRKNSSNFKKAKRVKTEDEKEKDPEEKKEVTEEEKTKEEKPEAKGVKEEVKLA

binding | Substance
binds | PSMA2 (from UniProt P25787 1-234)
binds | ADRM1 (from UniProt Q16186 1-407)
binds | MSI1 (from UniProt O43347 1-362)
binds | PSMD2 (from UniProt Q13200 1-908)
binds | PSMD4 (from UniProt P55036 1-377)
binds | HDAC1 (from UniProt Q13547 1-482)

Reference: paper doi:10.1101/2020.12.17.423362
